For two substances, binding results are on record in publication PMC3973595.

Amino acid sequences for entries named in this document (tags omitted). A change or cut given only in a name is not applied to a line headed by its entry.
UniProt P13612: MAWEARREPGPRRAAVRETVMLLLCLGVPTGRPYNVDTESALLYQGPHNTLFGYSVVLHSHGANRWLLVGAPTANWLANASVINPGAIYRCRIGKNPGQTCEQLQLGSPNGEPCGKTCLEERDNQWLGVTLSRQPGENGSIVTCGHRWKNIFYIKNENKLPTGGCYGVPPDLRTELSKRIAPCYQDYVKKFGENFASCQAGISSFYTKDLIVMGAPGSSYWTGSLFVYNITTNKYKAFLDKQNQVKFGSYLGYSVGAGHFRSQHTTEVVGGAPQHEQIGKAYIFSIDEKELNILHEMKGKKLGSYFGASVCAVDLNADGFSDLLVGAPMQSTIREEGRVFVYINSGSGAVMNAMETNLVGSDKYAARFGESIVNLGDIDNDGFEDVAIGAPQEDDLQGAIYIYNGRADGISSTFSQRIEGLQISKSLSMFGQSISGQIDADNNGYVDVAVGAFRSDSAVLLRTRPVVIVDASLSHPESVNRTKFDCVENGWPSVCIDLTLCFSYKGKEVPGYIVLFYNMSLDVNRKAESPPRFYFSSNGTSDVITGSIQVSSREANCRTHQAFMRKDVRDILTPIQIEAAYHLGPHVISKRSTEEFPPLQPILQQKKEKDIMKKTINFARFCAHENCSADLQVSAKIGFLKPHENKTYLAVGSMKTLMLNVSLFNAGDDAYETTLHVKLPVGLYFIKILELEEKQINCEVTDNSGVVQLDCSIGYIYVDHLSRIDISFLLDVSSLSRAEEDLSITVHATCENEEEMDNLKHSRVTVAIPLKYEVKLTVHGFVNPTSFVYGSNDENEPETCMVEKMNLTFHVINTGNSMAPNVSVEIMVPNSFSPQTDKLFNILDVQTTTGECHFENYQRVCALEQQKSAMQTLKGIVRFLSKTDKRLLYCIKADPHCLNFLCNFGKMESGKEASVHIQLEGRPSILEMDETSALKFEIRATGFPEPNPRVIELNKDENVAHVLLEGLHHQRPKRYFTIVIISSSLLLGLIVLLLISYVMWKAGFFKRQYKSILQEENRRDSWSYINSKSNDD
UniProt P06756: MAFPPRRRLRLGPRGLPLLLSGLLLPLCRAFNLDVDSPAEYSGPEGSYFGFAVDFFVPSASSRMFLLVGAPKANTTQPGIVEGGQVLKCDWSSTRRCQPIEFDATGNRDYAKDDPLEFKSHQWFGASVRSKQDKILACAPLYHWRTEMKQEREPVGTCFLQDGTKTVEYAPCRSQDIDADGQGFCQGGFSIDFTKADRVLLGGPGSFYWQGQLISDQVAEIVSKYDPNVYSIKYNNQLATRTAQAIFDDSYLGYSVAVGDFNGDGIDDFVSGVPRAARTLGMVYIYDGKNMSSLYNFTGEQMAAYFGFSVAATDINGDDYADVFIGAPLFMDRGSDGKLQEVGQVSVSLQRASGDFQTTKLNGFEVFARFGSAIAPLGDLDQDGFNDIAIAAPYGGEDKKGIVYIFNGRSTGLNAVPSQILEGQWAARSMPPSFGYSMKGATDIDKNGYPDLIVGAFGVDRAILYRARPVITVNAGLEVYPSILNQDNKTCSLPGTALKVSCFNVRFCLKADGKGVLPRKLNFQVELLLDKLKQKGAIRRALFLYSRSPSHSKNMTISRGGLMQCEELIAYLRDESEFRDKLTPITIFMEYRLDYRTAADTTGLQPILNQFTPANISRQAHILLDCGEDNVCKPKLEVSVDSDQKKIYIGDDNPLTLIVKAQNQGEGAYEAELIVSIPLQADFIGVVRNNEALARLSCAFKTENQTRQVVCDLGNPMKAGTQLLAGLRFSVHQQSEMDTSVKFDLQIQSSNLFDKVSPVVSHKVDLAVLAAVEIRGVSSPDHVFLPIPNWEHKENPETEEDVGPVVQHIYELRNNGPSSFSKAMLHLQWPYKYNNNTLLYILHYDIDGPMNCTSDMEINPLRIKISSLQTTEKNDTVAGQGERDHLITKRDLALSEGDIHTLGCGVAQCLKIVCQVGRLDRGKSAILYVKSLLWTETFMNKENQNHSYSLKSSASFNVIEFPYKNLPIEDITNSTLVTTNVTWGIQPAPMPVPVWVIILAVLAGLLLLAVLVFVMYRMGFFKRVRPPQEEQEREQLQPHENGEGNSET

No constants are given. Whether binding was seen depends on the method and setting. Some results given as binding are weak or reduced against the parent protein; the word gives no strength.

For the assay, the target named is T1, monomeric C-reactive protein (mCRP) (human) (UniProt P02741).
T1 sequence: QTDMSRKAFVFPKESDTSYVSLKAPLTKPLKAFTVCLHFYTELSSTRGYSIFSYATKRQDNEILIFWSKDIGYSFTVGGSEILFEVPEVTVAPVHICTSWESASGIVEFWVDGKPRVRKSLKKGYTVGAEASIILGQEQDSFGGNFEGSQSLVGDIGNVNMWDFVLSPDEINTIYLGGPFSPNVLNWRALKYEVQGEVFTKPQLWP
Kind of assay: cell adhesion assay; mCRP or pCRP coated on wells, blocked with BSA; U937 cells (10^5 cells/well) for 1 h in RPMI1640; with antagonists: mAb 7E3, SG73, AIIB2 25 μg/ml, cyclic RGDfV 10 μM, BIO1211 1 μM (mCRP coated at 2.5 μM); only the target purified.

Turning to “integrin α4β1 on U937 monocytic cells (from UniProt P13612 34-1032; P05556 21-798) (receptor)”, the binding entry is reported as “binds”.
“integrin αvβ3 on U937 monocytic cells (from UniProt P06756 31-1048; P05106 27-788) (receptor)”: the binding result is listed as “binds”.
